Results deposited as PubChem BioAssay AID686943 (Drosophila RNAi Screening Center, 2013)

Test: 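Knockdowns that increase or decrease active ERK after insulin receptor stimulation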 (primary screen)
Cells: Drosophila S2R+ haemocyte-like cells expressing YFP-tagged ERK (Rolled)
Reagents: long dsRNA against Drosophila genes
Conditions: insulin stimulation versus unstimulated cells; dose and duration not given
Measurement: 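Per-plate z-scores of phospho-ERK immunostaining normalised to YFP-tagged ERK, measured with and without insulin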
Reading the numbers: replicate 1, z-score of dpERK with insulin and replicate 2, z-score of dpERK with insulin: higher = more active ERK per ERK-YFP after insulin
The screen tested about 23,000 reagents; below is an unselected part of those that have a named target and a result. 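Extra replicates exist only for a retested subset of genes; insulin dose and duration not given; both raised and lowered dpERK matter.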 Reagents against one gene are numbered here. Names joined by + are all predicted targets of the reagent. Not all columns of the deposit are shown. The record does not give: the amount of reagent, the time to read-out.

| gene | dsRNA no. | replicate 1, z-score of dpERK with insulin | replicate 2, z-score of dpERK with insulin |
| --- | --- | --- | --- |
| halo | 1 | 0.83 | 0.54 |
| P5cr | 1 | 0.78 | 0.88 |
| CG34457 | 1 | 0.56 | 0.24 |
| asRNA:CR43426 | 1 | -0.09 | -0.34 |
| CG7365 | 1 | -0.42 | -0.43 |
| CG11588 | 1 | -0.23 | 0.11 |
| CG11588 | 2 | 0.64 | 1.17 |
| Fbp2 | 1 | -0.69 | 0.23 |
| CG30103 | 1 | 0.27 | 1.57 |
| Fntb | 1 | 0.29 | -0.23 |
| CG6443 | 1 | 0.85 | 0.63 |
| IntS4 | 1 | -1.14 | -0.29 |
| CG14277 | 1 | 0.33 | 0.15 |
| CG8172 | 1 | 0.1 | 0.22 |
| CG8172 | 2 | -0.22 | 0.26 |
| EMC3 | 1 | -0.2 | -0.34 |
| Mat1 | 1 | 0.42 | 0.07 |
| Srg3 | 1 | -0.64 | -0.22 |
| Srg3 | 2 | 0.83 | -0.51 |
| Aef1 | 1 | -0.07 | 0.11 |
| RpL10Aa | 1 | -1.37 | -1.04 |
| CG1074 | 1 | 0.17 | -0.06 |
| CG1607 | 1 | -0.1 | -0.04 |
| fs(1)h | 1 | 0.87 | 0.41 |
| SK | 1 | 1.04 | -0.09 |
| SK | 2 | 1.69 | 0.54 |
| SK | 3 | -1.58 | -0.13 |
| SK | 4 | -0.95 | -1.06 |
| SK | 5 | -0.64 | -0.38 |
| SK | 6 | 0.11 | -0.47 |
| CG30109 + CG30108 | 1 | 0.17 | 0 |
| CG10934 | 1 | 0.53 | -0.04 |
| CG5958 | 1 | -0.13 | -0.41 |
| Dph1 | 1 | -0.07 | -0.65 |
| bol | 1 | 0.3 | 0.21 |
| bol | 2 | 1.18 | -0.08 |
| bol | 3 | -1.18 | -0.5 |
| Trxr1 | 1 | -0.05 | 0.7 |
| Trxr1 | 2 | 0.69 | 1.12 |

Copied from the entries so far, 5 entries:
| gene | dsRNA no. | replicate 1, z-score of dpERK with insulin | replicate 2, z-score of dpERK with insulin |
| --- | --- | --- | --- |
| CG30103 | 1 | 0.27 | 1.57 |
| Fntb | 1 | 0.29 | -0.23 |
| CG6443 | 1 | 0.85 | 0.63 |
| IntS4 | 1 | -1.14 | -0.29 |
| CG14277 | 1 | 0.33 | 0.15 |
